Measurements: patent EP3366695B1, “SAPOSIN-A DERIVED PEPTIDES AND USES THEREOF” (Children's Medical Center Corporation, priority 2009, dated 2021)
Part of at least one peptide drawing is inferred or uncertain, most often the ends. Bridge positions count the residues as written; N and C are the ends. Peptide text beside a SMILES is read from it.

Assays:
Type in all cases: cell-based, human
Conditions in all cases: WI-38 fibroblasts treated with peptide
Tsp-1 = Tsp-1 expression in WI-38 lung fibroblasts, western blot
Procedure: For Western blotting, cells were harvested by mechanical scraping into 4°C PBS, cell pellets were obtained by removing PBS after centrifugation at 13,000rpm in a Heraeus Biofuge Fresco (Thermo Electron, Asheville, NC) for 2 min. Cells were then lysed in 50 mM Tris-HCl (pH 7.4), 150 mM NaCl, 1 % NP40, 1 mM sodium orthovanadate, 5 mM NaF, 20 mM β-glycerophosphate, and complete protease inhibitor (Roche, Indianapolis, IN) and protein concentrations were determined by the BioRad protein assay (BioRad, Hercules, CA). Fifty micrograms of protein were loaded per well onto a 4-12 % pre-cast Bis-Tris gel (BioRad, Hercules, CA). The protein extracts were electrophoresed and transferred to an immobilon-P membrane (Millipore, Bedford, MA). The membranes were blocked in 5 % nonfat milk and incubated in primary antibody to Tsp-1 (Ab-11, LabVision, Fremont, CA), c-Myc and phospho-Myc (Cell Signaling Technology, Beverly, MA), Prosaposin (Santa Cruz Biotechnology, Santa Cruz, CA), β-actin (AbCam, Cambridge, UK). […] Protein volume intensity was determined using a Bio-Rad Chemi-Doc XRS system (Bio-Rad, CA). […]
Seven 20-amino acid (20-mer) peptides derived from saposin A were tested for ability to stimulate Tsp-1 expression in fibroblasts. […] WI-38 lung fibroblasts were treated with these peptides overnight and the Tsp-1 expression was analyzed by Western blot analysis. […]

p53 = p53 expression in WI-38 fibroblasts, western blot
MDM2 = MDM2 protein levels in WI-38 fibroblasts, western blot

## CSCC[C@@H]1NC(=O)[C@H](CC(N)=O)NC(=O)[C@@H]2CCCN2C(=O)[C@H](CCCCN)NC(=O)[C@@H]2CCCN2C(=O)[C@H](CC(C)C)NC(=O)[C@H](Cc2c[nH]c3ccccc23)NC(=O)[C@H](CC(=O)O)NC(=O)[C@@H](N)CSSC[C@@H](C(=O)O)NC(=O)[C@H](CO)NC(=O)[C@H](C)NC(=O)[C@H](CO)NC1=O [13-mer, CDWLPKPNMSASC] (H-CDWLPKPNMSASC-OH; disulfide 1-13)
Tsp-1
  Tsp-1 expression: stimulation of p53 and Tsp-1
p53
  p53 expression: stimulation of p53 and Tsp-1
MDM2
  MDM2 protein levels: down regulation of MDM2
